According to PubChem BioAssay AID1347423 (Functional Genomics Laboratory (NCATS/FGL), 2020):
About 210 (0.4%) of roughly 52,000 sequences were called active.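 Rule for the calls: active = gene whose silencing raises cell survival under the drug, median off-target-corrected z-score across its silencing RNAs 2 or more; inactive = the rest.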 This is one part of the list.

Assay: Resistance to Poly (ADP-Ribose) Polymerase inhibitor: Gene Identification via Genome-wide siRNA Screen
Details: mouse BRCA2 R2336H ES cells, olaparib, CellTiter-Glo viability; hits give high values
How it was run: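 Genome-wide siRNA screen (3 siRNAs/gene, 20 nM) in mouse ES cells carrying hypomorphic BRCA2 R2336H; olaparib 500 nM added 48 h post-transfection, CellTiter-Glo viability 72 h later. Normalized to plate-median negative control; MAD z-scores, gene median, seed-adjusted.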

Sequence	z-score
GGAAGAACUAGAGUCAUAUTT against Eps8l1	inactive: 0.403
GGAUAUCCACAGAAAAGGGTT against Chst8	inactive: 0.564
GGGAUCACAAUGAAGAAAUTT against Chgb	inactive: -1.54
GGACACAGACCUUUGUUAATT against P2y5	inactive: 0.354
GGAACAGCAAACUGAAAACTT against 2200003E03Rik	inactive: 0.8
GCUCCAAUGAGAUCAUUCUTT against Gemin6	inactive: 1.83
GCACGUUCUUUCAAGAAAGTT against 1110014K08Rik	inactive: -0.36
GGAAUAAAGCUCAUCUACGTT against BC042513	inactive: 2.79
GGCUGAGUGGCUCUAUAGUTT against 2810403B08Rik	inactive: -0.274
GGAAGGACUUAAAUGAUGCTT against AB030190	inactive: -0.908
GGGAGCUCUAAAAAAAGUGTT against Olfr390	inactive: 0.0742
CAAACUGGGUCCCAAUGAATT against Ndufa4	inactive: -2.03
GGGAAGGUAUAAGACCUUUTT against Olfr509	inactive: 0.0817
GCCUUUAGCUCCAUUCACUTT against Zfyve1	inactive: -0.541
GGGCAGGACUUUACCUUUATT against 2400003L07Rik	inactive: -0.0384
CGGCAAUUUGAGUUGAAAATT against 4930403L05Rik	inactive: -0.112
GGAAGUUGUCCAAGCAAAUTT against Sesn3	inactive: 0.643
GCCUGAAUUUUUGGGCAUATT against Ripk2	inactive: 0.0964
GGCAGAACUCAAAUUCUUGTT against AW209491	inactive: 0.0903
CGACCACUUGGUGAUGCUCTT against Chc1	inactive: -0.298
GCCAAAGAUUAUCGAGUGUTT against A630065K24Rik	inactive: 0.783
CCGAGGAUGCUAUUUAAUCTT against Olfr183	inactive: 0.192
GGAGAGACAGUUGUACACGTT against Oprs1	inactive: -1.2
GGGACUAUUCCUCCAGAGUTT against Cast	inactive: 1.19
GGCAGCCAGUGUGCUAAAATT against Atp6v1h	inactive: 1.18
GGCUAAGGCCACAAAUGUGTT against Tacc3	inactive: -1.69

Sequence	z-score
GGACAUGGUACCACAGGAGTT against Odz4	inactive: -1.51
GGUAAUUAAUUCAAAGCAGTT against Siat8d	inactive: 0.631
ACCUCAGACUCUUCAACUGTT against Olfr112	inactive: -0.162
CGUCAGAUUGACAAGGCACTT against Serpinb7	inactive: -1.24
CCAGUAUCACUAAAGCACATT against A030009B12Rik	inactive: 0.248
GGUAAUUACGACCUAUUGUTT against Aldh7a1	inactive: 2
GGUCUACUGAUAUAAUCAATT against Kif11	inactive: -1.97
GGUUGAGAUGUUCCAUAGATT against Gpr77	inactive: 1.69
GCCCAGAGUGUUCAAGUGUTT against Zfp236	inactive: 0.0942
GGAUAUGAUGUCAGACAACTT against Zdhhc13	inactive: -0.447
CCCGACCACGUGUUUAUUGTT against Tnfsf12	inactive: 0.729
GGAUGAUGAUGGCUUCAUCTT against 2610528J11Rik	inactive: 1.42
GCUCCUCUAUAUUUGAAAGTT against Cx3cl1	inactive: -0.35
GGCGACAGCGUAAAAGUACTT against Lyst	inactive: -2.09
GCCUUCUGUGAGGAUCUUUTT against 3000002B06Rik	inactive: -1.75
CCAGCCUUCAAUUGUGGUCTT against Scn1b	inactive: 0.712
GCGCAUAUGGCUACGUUCATT against C630023L15Rik	inactive: -2.25
GGACAACUGAACUACCUCGTT against Paqr3	inactive: -2.72
GGAAAGAAGGACAUGUUGCTT against Fbxo2	inactive: 0.535
CGAAAACAGUUAGUUACCATT against Endogl1	inactive: 0.128
CCUGUGGGACUCAAUGUUGTT against 2310039H08Rik	inactive: -0.898
CGGGUCUCAGUCUUUCCUATT against 9930023K05Rik	inactive: 0.59
GGGUCUCUGUAUGCAUAUATT against Dbpht1	inactive: 0.00114
GGUGCUACAAGUGUACUGATT against Zswim2	inactive: 0.156
GGACUGAAUAUCUUCUUUGTT against Rrh	inactive: 0.471
GGAGACCCAAGUGAUUCUGTT against Eral1	inactive: -0.881

Sequence	z-score
GCAUCCUGGCUGCUAUCAUTT against Olfr399	inactive: -1.94
CGUAUAAUGAGGAUGUGCUTT against D6Ertd365e	inactive: 1.06
GGGUCACUGAAGAUUAUAUTT against Inhbc	inactive: -0.986
GGUUAAGGAAGUAAAAAAGTT against Gsr	inactive: 1.25
GGGUUGGAACAAGGUAAUUTT against Usp16	inactive: -2.1
GAUAGUGACAUUCUUGGAATT against Hspe1	inactive: 0.725
GGAAUUAAUGGCAUAGACUTT against Col4a3bp	inactive: 1.1
GGGAACCACACAGAGAUAATT against Cd160	inactive: -0.899
GGGCUAUCUAACAUUAACUTT against 2010208K18Rik	inactive: -0.15
GGAGUUCCUCAAACAGGAGTT against E330028A19Rik	inactive: -0.427
UAAAAUUCCCUUCUGCUCATT against Olfr814	inactive: 1.69
GGUUUAAAGAAAGACUGAATT against 2810032G03Rik	inactive: -1.8
GGAGAAUAUGUCGUCAUGATT against Gabra3	inactive: -1.4
GUUCCUCAGUAUGUUGCCATT against Olfr126	inactive: -1.52
GGAAACAGAAGGAAUACUUTT against D15Ertd781e	inactive: 0.316
GCCUUCAACAUUCGGACUUTT against Dnase1	inactive: -1.1
CGUAGCAAUCUUGGUUGCUTT against Hoxa3	inactive: 0.734
GGAAGAGAAAGCAAAGUCATT against Ddx19	inactive: 0.454
GGAAUCCAUGUUAGUAGCCTT against Lrsam1	inactive: 0.152
GGUGGAGACUGUGUCUAGUTT against 9430057O19Rik	inactive: -0.604
UACUACAACCGCACAGUGATT against Tmc6	inactive: -0.308
GGGAAAUUUCUCACUCUCUTT against Olfr1362	inactive: 0.306
GCGAUAUAAUAUGGAAAGATT against Plcg2	inactive: -0.331
GGGCUUCUGUGCAUUGCAUTT against Asb3	inactive: 0.542
GGUGGUCUACAUAGCUUGUTT against Kdelr1	inactive: 0.614
GGUCAGUCGGUUGUUACUATT against 5830472M02Rik	inactive: -1.74

Part of the list above, with each value named:
GGUUAAGGAAGUAAAAAAGTT against Gsr
  z-score: inactive: 1.25
GGGCUAUCUAACAUUAACUTT against 2010208K18Rik
  z-score: inactive: -0.15
CGUAGCAAUCUUGGUUGCUTT against Hoxa3
  z-score: inactive: 0.734
GGGCUUCUGUGCAUUGCAUTT against Asb3
  z-score: inactive: 0.542

Remaining list, next part:

Sequence	z-score
GAAAAAUAAUGGAGUUUGGTT against D17Wsu155e	inactive: 0.781
CCAGUUUCGGAUUCAGUAGTT against Kb36	inactive: -0.936
GGUCCUACUUGUUCAUUGATT against Il1rl1	inactive: -0.537
GCCAGAGACACGAUCCUCUTT against 1110020M19Rik	inactive: -0.784
GGCAUAGCUCAGUGAUAGCTT against Tmem19	inactive: 1.44
GGGUACGGUUCAGUGACAATT against 6030419C18Rik	inactive: 0.202
GGAUCUGAUAAACUCAUUCTT against Lad1	inactive: 1.41
GCAGACAAUAUCUCUGAAUTT against Olfr459	inactive: 0.49
GGACCUCUGUUUCCAGGAGTT against G6pc3	inactive: 0.285
CGAUUCCCUGGUUAUGACUTT against Rpl5	inactive: -3.11
GGUGGAUUUUAAGUUUCCUTT against Aurkc	inactive: 0.114
CGAAUAAACUUGAUUUGCCTT against Ier3	inactive: 0.73
GGAGCUCAAACAGGAGAACTT against B230384L07	inactive: 0.0277
GGAACGAGUUUUGAAAAAATT against Creb3l3	inactive: 0.523
GGGAAACGUGAAUUAGUAATT against 1110051M20Rik	inactive: -0.195
GGAGGUACUUACAAUUUUGTT against Kpna3	inactive: 2.14
GGAUAGCAAUUACCUGCUATT against Strap	inactive: -1.35
GGUCAAGUAUGAUGCUGAUTT against AI847670	inactive: 0.515
GGUACAGAACAGGAUGGUATT against Zbtb33	inactive: 0.328
GGGUACAAAGCAACAUUGGTT against Disp1	inactive: -2.22
GGUGUUCUAAUUCUGAGGCTT against Tcstv1	inactive: 0.0975
GGAAGAAUCUUUCUGAUGGTT against Pon3	inactive: -1.32
GGUAGAGGAUGCGAUGCUGTT against Msi2h	inactive: -0.84
GGCAAUAAGUAAACACCUGTT against 0610008F07Rik	inactive: 0.447
GGAGAAAAAGCAACUUCAATT against Epsti1	inactive: 0.263
GGUAAAUUCAACUGGAAGGTT against Lyar	inactive: 1.66
